According to publication PMC11955556:
Results are given in words; binding and its absence hold for the method and conditions named. Binding seen in cells or lysates may run through a third protein. Some entries that bind do so weakly or less than the wild type. For part of these data: Tags and fused reporters may be left off the sequences shown.

The chains behind the UniProt entries cited, without tags or fusion partners.
UniProt O60825: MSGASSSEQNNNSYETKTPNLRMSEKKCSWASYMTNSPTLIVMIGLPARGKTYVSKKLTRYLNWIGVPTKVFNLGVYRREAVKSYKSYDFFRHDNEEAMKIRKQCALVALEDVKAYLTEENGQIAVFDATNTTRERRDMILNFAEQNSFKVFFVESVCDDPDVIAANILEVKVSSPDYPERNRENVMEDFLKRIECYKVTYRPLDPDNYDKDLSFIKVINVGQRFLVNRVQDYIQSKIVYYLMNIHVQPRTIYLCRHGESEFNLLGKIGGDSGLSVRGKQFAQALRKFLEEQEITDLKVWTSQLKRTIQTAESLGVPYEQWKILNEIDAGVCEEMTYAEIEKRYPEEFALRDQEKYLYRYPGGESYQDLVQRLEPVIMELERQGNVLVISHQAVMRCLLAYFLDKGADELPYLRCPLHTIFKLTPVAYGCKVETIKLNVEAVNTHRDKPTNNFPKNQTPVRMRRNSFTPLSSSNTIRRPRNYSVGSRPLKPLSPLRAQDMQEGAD
UniProt Q9P1W9: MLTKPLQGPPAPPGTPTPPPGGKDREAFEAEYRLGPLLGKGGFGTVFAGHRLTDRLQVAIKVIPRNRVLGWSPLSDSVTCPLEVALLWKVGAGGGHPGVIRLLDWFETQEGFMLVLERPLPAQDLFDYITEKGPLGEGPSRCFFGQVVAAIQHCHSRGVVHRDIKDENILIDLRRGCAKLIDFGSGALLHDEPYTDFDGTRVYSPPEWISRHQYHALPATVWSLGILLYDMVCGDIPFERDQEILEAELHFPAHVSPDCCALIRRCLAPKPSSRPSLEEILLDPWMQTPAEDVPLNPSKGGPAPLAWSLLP

What was measured:
Assay in all cases: co-IP; HEK293T cells co-transfected with Flag-Pim2 and an HA-tagged enzyme; RIPA lysate; immunoprecipitation with anti-HA and anti-Flag antibodies on protein A/G beads; Western blot
[1] = biological target: T1, HA-tagged PDHA1 (UniProt P08559)
T1 sequence: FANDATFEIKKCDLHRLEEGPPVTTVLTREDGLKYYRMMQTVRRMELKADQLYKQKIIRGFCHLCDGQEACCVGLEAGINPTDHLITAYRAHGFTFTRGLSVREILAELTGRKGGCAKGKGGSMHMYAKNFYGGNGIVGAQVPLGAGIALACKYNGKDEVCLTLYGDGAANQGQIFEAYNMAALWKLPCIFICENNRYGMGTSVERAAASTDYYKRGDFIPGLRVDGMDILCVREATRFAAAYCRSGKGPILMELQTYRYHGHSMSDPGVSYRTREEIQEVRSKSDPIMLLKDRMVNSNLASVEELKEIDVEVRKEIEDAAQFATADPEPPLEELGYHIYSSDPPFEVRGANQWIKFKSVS

[2] = biological target: T2, HA-tagged PGK1 (UniProt P00558)
T2 sequence: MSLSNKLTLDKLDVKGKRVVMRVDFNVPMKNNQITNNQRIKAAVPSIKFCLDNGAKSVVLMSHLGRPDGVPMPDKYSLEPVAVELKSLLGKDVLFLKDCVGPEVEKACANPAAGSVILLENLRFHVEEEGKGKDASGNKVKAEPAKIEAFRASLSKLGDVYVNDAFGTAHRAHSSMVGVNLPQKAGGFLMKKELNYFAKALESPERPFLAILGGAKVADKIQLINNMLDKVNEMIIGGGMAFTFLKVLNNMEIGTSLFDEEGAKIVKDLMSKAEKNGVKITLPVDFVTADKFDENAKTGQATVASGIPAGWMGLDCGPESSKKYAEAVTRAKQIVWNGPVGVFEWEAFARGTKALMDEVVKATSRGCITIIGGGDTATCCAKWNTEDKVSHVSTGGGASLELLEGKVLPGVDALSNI

[3] = biological target: HA-tagged PFKFB2 (UniProt O60825)

Measured: binding

Flag-tagged Pim2 (proviral integration of Moloney virus 2 kinase) (from UniProt Q9P1W9 1-311) (enzyme)
binds: all assays above
